Laboratory results reported in publication doi:10.1101/750596.
These are yes or no findings as the source states them, for the method shown. Some results given as binding are weak or reduced against the parent protein; the word gives no strength.

Target: T1, annotated full-length CNTD1 (Cyclin N-terminal domain-containing 1), yeast two-hybrid bait (mouse) (UniProt Q9D995)
T1 sequence: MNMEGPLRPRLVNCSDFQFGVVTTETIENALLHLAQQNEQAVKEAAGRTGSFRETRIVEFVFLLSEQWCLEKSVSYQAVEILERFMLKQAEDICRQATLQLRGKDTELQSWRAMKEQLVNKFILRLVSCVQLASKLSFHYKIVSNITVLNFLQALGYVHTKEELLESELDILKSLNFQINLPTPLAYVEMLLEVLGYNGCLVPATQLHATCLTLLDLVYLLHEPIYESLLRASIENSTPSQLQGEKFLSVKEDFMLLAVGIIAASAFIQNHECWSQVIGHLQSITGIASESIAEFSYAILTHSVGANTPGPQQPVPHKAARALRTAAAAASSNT
Assay: two-hybrid

binding: binds
B1: CDK4, yeast two-hybrid prey (enzyme, UniProt P30285 1-303)
chain: MAATRYEPVAEIGVGAYGTVYKARDPHSGHFVALKSVRVPNGGAAGGGLPVSTVREVALLRRLEAFEHPNVVRLMDVCATSRTDRDIKVTLVFEHIDQDLRTYLDKAPPPGLPVETIKDLMRQFLSGLDFLHANCIVHRDLKPENILVTSNGTVKLADFGLARIYSYQMALTPVVVTLWYRAPEVLLQSTYATPVDMWSVGCIFAEMFRRKPLFCGNSEADQLGKIFDLIGLPPEDDWPREVSLPRGAFAPRGPRPVQSVVPEMEESGAQLLLEMLTFNPHKRISAFRALQHSYLHKEESDAE
